Primary screen of a compound library

The values are deposited in ChEMBL (CHEMBL3988442, “University of Dundee, Small-Polar-MMV Screening Library” (2021)).

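Viability assay of Plasmodium falciparum sporozoites; the read-out is not stated. The concentration is filed as 10 mM, unlikely as a test dose, so the dose is not known. The record gives no direction; compounds that gave an IC50 in retests scored well above the rest, so higher reads as lower viability. Strong results were mostly tested again. Size under these conditions: about 34,000 compounds, about 280 of them at 50% or above in at least one test.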

Each number is a percent effect as filed. How 0% and 100% were set is not recorded. Most values in the screen are low, and negative values occur. This is an unselected part of the compounds tested. Two or more numbers in one place are separate tests of the same structure; such repeats can differ widely.

Compound	Percent Effect
CN1C(=O)CCC12CCN(S(=O)(=O)c1ccccc1)CC2	2.224
Cc1nccn1-c1cc(CNC(=O)NCC2CCCO2)ccn1 (centres undefined)	1.885
CC(=O)N1CCC2(CCN(C(=O)c3ccc(Cl)c(C(F)(F)F)c3)C2)C1 (centres undefined)	-1.703
c1ccc(N2CCC(c3ccncc3)CC2)cc1	4.623
O=C(CCCN1CCCCC1)N[C@H](C(=O)O)c1cccc(F)c1F	-3.547
Cc1nc(C)c(C(C)NCc2c(C)nn(C)c2N(C)C)s1 (centres undefined)	-14.95
CS(=O)(=O)c1ccc(CNCC2CCN(CCO)CC2)cc1	-2.007
COCC(=O)N1CCC(Nc2ccnc3ccc(Cl)cc23)CC1	9.656
O=C(C1CC(=O)N(c2ccccc2Br)C1)N1CCC2(CC1)OCCO2 (centres undefined)	8.369
Cn1ccnc1CN1CCC(F)(F)C2(CCN(c3cccnc3)C2)C1.O=C(O)C(F)(F)F.O=C(O)C(F)(F)F (centres undefined)	16.45
Cc1cc(C)n(CC(C)NC(=O)NCc2c(C)cc(C)[nH]c2=O)n1 (centres undefined)	-9.778
COc1cc2cc(C(=O)O)n(C)c2c(OC)c1OC	-20.39
COc1ccc(C(C(=O)O)N2CCN(C3CCCC3)CC2)cc1C (centres undefined)	-3.669
Cc1cccc(-c2nccnc2C2CCCN(C)C2)c1 (centres undefined)	9.432
COCCc1noc(CN2CCOC(Cn3cc(C)cn3)C2)n1 (centres undefined)	-2.701
[H][C@@]12CN(C(=O)CC(F)(F)F)C[C@]1([H])C(=O)N(Cc1csc(C)n1)C2	8.923
CCOc1ccc(-n2nnc(C(=O)O)c2-c2ccccn2)cc1	9.357
Cc1noc(C2CCC3(CCN(C(=O)c4sccc4C)CC3)O2)n1 (centres undefined)	-0.2632
COCc1ccccc1NC(=O)NCc1ccc(OCC2CC2)nc1	8.413
Cc1cccc(-n2c(C)cc(C(=O)N3CCn4c(C)nnc4C3)c2C)c1	50.81 and 47.19 and 51.44
CN1C(=O)C(c2ccccc2)CC12CCN(CCOCCO)CC2 (centres undefined)	12.45
O=C(O)C(F)(F)F.O=C(O)C(F)(F)F.O=C(O)C(F)(F)F.[H][C@@]12CN(Cc3ccncc3)C[C@]1([H])[C@@H](OC)CCN2Cc1cccs1	10.4
Cc1cncnc1C1CCN(C(=O)C2(C)CCCCN2C)CC1 (centres undefined)	-9.496
O=C(CN1CCCC1Cn1cccn1)NCCC1=CCCCC1 (centres undefined)	12.26
Br.Cn1cc(CN2CCOC(c3cccc(-c4cncnc4)n3)C2)cn1 (centres undefined)	3.465
[H][C@@]12CCN(S(C)(=O)=O)[C@]1([H])CC[C@@H](c1nnc(C)o1)O2	11.11
[H][C@@]12CCCO[C@]1([H])[C@H](OCC1CCOCC1)CN2C(=O)c1ccc(C)o1	-7.718
CN1C[C@H](O)[C@]2(CCN(C(=O)NCc3ccccc3)C2)S1(=O)=O	8.134
CN1CCC(c2cncc(N(C)C)n2)CC1	3.075
Cc1ccc(CC(=O)N2CCc3nnc(N(C)C)cc3C2)s1	21.46
O=C(O)C(F)(F)F.O=C(O)C(F)(F)F.[H][C@]12C[C@@H](C(=O)N(C)Cc3ccccn3)CO[C@@]1([H])CCN(CC1CC1)C2	-667.3
Cn1cc(Cl)cc1C(=O)N1CCCN(Cc2ccccc2)CC1	6.53
COc1ccc(C(=O)N2CCN(c3cc(CCN)nc(C)n3)CC2)cc1	-5.175
COCc1nc(C(=O)NS(=O)(=O)c2cc(C)ccc2C)cs1	6.089
O=C(O)C(F)(F)F.[H][C@@]12OCCN(C(=O)c3ccoc3C)[C@@]1([H])CC[C@H]2OCc1ccccn1	-10.16
O=C(O)C(F)(F)F.[H][C@@]12COC[C@]1(CNC(=O)c1ccco1)CN(CC1CCOCC1)C2	-13.63
CC(C(=O)N1CCCN(Cc2ccc(C#N)cc2)CC1)n1cncn1 (centres undefined)	6.455
O=C(O)C(F)(F)F.O=C(O)C(F)(F)F.[H][C@@]12OCCN(Cc3ccoc3)[C@@]1([H])CCC2COCc1cccnc1 (some centres undefined)	12.08
COCCCNC(=O)Cc1nc(-c2ccncc2)n[nH]1	-0.1791
Cc1ncc(C(=O)N2CCC(C(=O)NC3CCCC3)C2)c(C)n1 (centres undefined)	-15.58
CCN(CC)C(=O)c1cc(C2(C)CCN(C(C)=O)CC2)nc(C)n1	-2.007
CC(C)COCC1CN(Cc2cnn(C)c2)Cc2ncn(C)c21 (centres undefined)	-0.6267
O=C(O)C(F)(F)F.[H][C@]12CCCN(CC3CCOCC3)[C@@]1([H])CN(C(=O)c1ccco1)C2	-14.88
COc1cc(C)nc(N2CCN(C(=O)c3cccc(C#N)c3)CC2)n1	-0.2693
CC(=O)N1CCC(n2nccc2-c2cnc(N(C)CCO)nc2)CC1	6.351
NC(=O)C1(CCCc2ccccn2)CCCN(c2ncccn2)C1 (centres undefined)	13.12
COc1cccc2ccc(N3CCC(O)(C(=O)O)CC3)nc12	-1.074
O=S(=O)(NCc1ccccc1Cn1cncn1)C1CCCC1	-11.93
Cc1noc2nc(C3CCCN(Cc4cccnc4)C3)cc(C(F)F)c12 (centres undefined)	11.19
Cc1ccc(C(=O)N2CCC3(CC2)CC(N2CCCC2)C3)cc1.O=C(O)C(F)(F)F	-3.307
COc1cc2cc3c(nc2cc1OC)OCCN(Cc1cccs1)C3	7.056
CCN1CCN(C(=O)CCc2c(C)noc2Cl)CC1	-4.156
CNC(=O)C1(c2cnccn2)CCCN1C(=O)c1cccc(F)c1 (centres undefined)	1.701
CN1CCC2(CC1)CNC(=O)c1ccccc1O2	4.384
NC(=O)N1CCC2(CCN(Cc3ccccn3)C2=O)C1.O=C(O)C(F)(F)F (centres undefined)	-16.96
CC(C)[C@@H](N)C(=O)NCc1cccnc1N1CCc2ccccc2C1	-1.228
O=C(O)C(F)(F)F.O=C(O)C(F)(F)F.[H][C@]12C[C@@H](Cn3cncn3)N(C)[C@@]1([H])CCN(Cc1ccsc1)C2	8.944
O=C(N1CCCC1)N1Cc2nccn2CC(CN2CCCC2)C1.O=C(O)C(F)(F)F (centres undefined)	1.829
O=C(c1cscn1)N1CCC2(CCN(Cc3nccs3)C2)CC1	-14.17
O=C(O)C(F)(F)F.O=C(O)C(F)(F)F.[H][C@@]12C[C@H](C(=O)NCC3CC3)N(C)[C@]1([H])CN(Cc1cccc(C#N)c1)C2	-2.888
CCOCC1CC2(CCN(Cc3ccccn3)CC2)CO1 (centres undefined)	-15.55
COc1ncccc1CNC(=O)c1ccc(C)[nH]c1=O	6.35
COc1cc(C(=O)NCc2ccc3c(c2)CCCN3C)cc(OC)c1Br	8.136
O=C(c1cnn(-c2ccccc2F)c1)N1CCN(CCO)CC1	-20.82
CC(=O)N[C@@H]1CN(Cc2oc3ccccc3c2C)C[C@H]1c1ccc(C)o1	3.86
Cc1nn(C)c(Cl)c1C1CCCN1C(=O)c1ccc2nncn2c1 (centres undefined)	1.76
O=c1oc2ccccc2n1CCN(CC1CCOC1)C1CC1 (centres undefined)	-6.491
CS(=O)(=O)NC1CCCN(C(=O)NCc2cccnc2)C1 (centres undefined)	-6.474
COc1ccccc1OCCn1c(C)c(C)oc1=O	-12.5
CCOC(C)c1noc(CN2CCCN(c3ccccn3)CC2)n1 (centres undefined)	-3.552
Cc1ccc2c(n1)N(CCN(C)C)CCN(C(=O)c1ccsc1)C2	-7.031
COc1cc(C)c(CN2CCc3nc4ccsc4c(=O)n3CC2)cc1C	4.255
CC(C)NC(=O)NC(C)c1nc(-c2ccccc2)cs1 (centres undefined)	-19.43
CC(C)c1noc(CN2CCN(C(=O)c3ccc(F)cc3)CC2)n1	5.709
Cc1ccc([C@@H]2CN(C(=O)c3cc(C)no3)C[C@H]2NC(=O)C2CC2)cc1	6.946
Cc1cccc(C(=O)N2CCC(c3n[nH]c(C4CC4)n3)CC2)c1	3.97
O=C(NCc1cccnc1)C1=NN(c2ccccc2)C(=O)CN1	8.535
Cc1ccc(CN2CCC3(CCCC(=O)N3)CC2)s1.O=C(O)C(F)(F)F	1.882
COc1ccc(-c2cc3nc(CCNC(=O)CN(C)C)nn3cn2)cc1	2.438
CN(Cc1ccc(N(C)C)cc1)C(=O)NCc1nnc2n1CCC2	12.43
Cc1nc(CN2CCn3cc(CNC(=O)C4CCC4)nc3C2)cs1.O=C(O)C(F)(F)F	0.974
c1cnnc(N2CCCC(NCc3ccc(-n4cncn4)cc3)C2)c1 (centres undefined)	-10.26
CC1c2ncc(COCC3CC3)n2CCN1C(=O)c1ccnn1C (centres undefined)	5.596
O=C(Nc1cccc2c1CCCC2)c1cccnc1N1CCCNCC1	-6.325
COc1ccc(C2SCC(=O)Nc3ccsc32)cc1 (centres undefined)	11.62

For reference, 6 entries once more:

| Compound | Percent Effect |
|---|---|
| `COc1ccc(C2SCC(=O)Nc3ccsc32)cc1` (centres undefined) | 11.62 |
| `Cc1ccc(CC(=O)N2CCc3nnc(N(C)C)cc3C2)s1` | 21.46 |
| `COc1cc2cc3c(nc2cc1OC)OCCN(Cc1cccs1)C3` | 7.056 |
| `Cc1ccc(C(=O)N2CCC3(CC2)CC(N2CCCC2)C3)cc1.O=C(O)C(F)(F)F` | -3.307 |
| `CS(=O)(=O)c1ccc(CNCC2CCN(CCO)CC2)cc1` | -2.007 |
| `CC(C(=O)N1CCCN(Cc2ccc(C#N)cc2)CC1)n1cncn1` (centres undefined) | 6.455 |